# Test results taken from PubChem BioAssay AID540276 (National Center for Advancing Translational Sciences (NCATS), 2011).
# The campaign covered roughly 300,000 compounds. About 5,400 (1.8%) were called active. Inconclusive means that the source gave no clear call. Such entries were picked first, then a sample of the others. Calls come from the whole dose curve; tested in HEK293 cells. Potencies beside an inconclusive call are fits to weak or partial responses and may not hold up.
# Test: qHTS for inhibitors of binding or entry into cells for Marburg Virus
# Details: Marburg virus pseudotyped entry inhibition, cell reporter; activity change, negative = inhibition: at 37.8 µM (top of the series) unless noted
# % is set by controls: 0 for no effect and ±100 for the full control effect; potency is the fitted concentration of half-maximal effect.
Compound,Potency,"activity change, negative = inhibition"
O=C(C1CCCN(S(=O)(=O)Cc2ccccc2)C1)N1CCC(Cc2ccccc2)CC1 (centres undefined),inactive,–
N#CC1=C(N)Oc2n[nH]c(-c3cccs3)c2C1c1ccoc1 (centres undefined),"inconclusive: 0.316 µM [activator, full curve, poor fit]",–
CC1CCCN(C(=O)COC(=O)c2ccc(=O)n(Cc3ccccc3)n2)C1 (centres undefined),inactive,–
Cc1c(C(=O)N2CCCC2)oc2c1-c1[nH]ncc1CC2,"inconclusive: 16.4 µM [activator, single point]",–
CCN(CC)CCNC(=S)Nc1ccc2nc(N3CCN(C)CC3)cc(C)c2c1,"inconclusive: 5.01 µM [inhibitor, full curve, poor fit]",–
C/C(=N\NC(=O)c1ccn(C)n1)c1cccc(NC(=O)c2ccc(C)s2)c1,"inconclusive: 0.731 µM [activator, full curve, poor fit]",–
CCOC(=O)c1c(NC(=O)CCN2CCOCC2)sc(C)c1-c1ccccc1,"inconclusive: 1.12 µM [inhibitor, full curve, poor fit]",–
Oc1ccc2ccccc2c1SSc1c(O)ccc2ccccc12,"inconclusive: 2.91 µM [activator, single point]",–
CCOc1ccc2oc(C(=O)OCC(=O)NC3CC3)c(C)c2c1,"inconclusive: 10 µM [activator, partial curve]",–
CCOC(=O)N1CCC(N2CCCC(CO)(Cc3cccc(Cl)c3)C2)CC1 (centres undefined),"inconclusive: 25.1 µM [inhibitor, single point]",–
O=C(Nc1ccccc1)c1ccc(=O)n(Cc2cccc(Cl)c2)c1,"inconclusive: 35.5 µM [inhibitor, single point]",–
CC(C)(C)OC(=O)N[C@@H](Cc1ccccc1)C(=O)N1CCC(C(=O)NCC(=O)O)CC1,"inconclusive: 0.316 µM [inhibitor, partial curve, poor fit]",–
Cc1ccccc1NC(=O)CSC1=C(C#N)C(c2ccsc2)CC(=O)N1 (centres undefined),"inconclusive: 35.5 µM [inhibitor, single point]",–
Cc1ccc(OCC(=O)NCc2n[nH]c(=O)c3ccccc23)cc1,inactive,–
Cc1ccccc1NC(=O)COc1cccc2c1CCNC2=O,"inconclusive: 6.31 µM [inhibitor, single point]",–
Cc1cccc(NC(=O)c2cc(NC(=O)c3ccco3)ccc2Cl)n1,"inconclusive: 11.2 µM [inhibitor, single point]",–
CCOC(=O)N1CCN(CC(O)COc2ccccc2C(C)CC)CC1 (centres undefined),inactive,–
CC(=O)NC(C)C(=O)OCC(=O)Nc1ccc(Br)cc1 (centres undefined),inactive,–
COc1cc(Br)c(C(C)NC(=O)c2ccccc2)cc1OC (centres undefined),inactive,–
CCN(CCCNC(=O)CSc1cc(=O)n(CC)c2ccccc12)c1ccccc1,"inconclusive: 0.316 µM [inhibitor, full curve, poor fit]",–
COc1ccc2cc(Br)ccc2c1CC(=O)NC(C)C,"inconclusive: 10 µM [inhibitor, partial curve, poor fit]",–
Nc1ccc(S(=O)(=O)NCC2CCCCO2)cc1 (centres undefined),"inconclusive: 5.62 µM [activator, single point]",–
CCN1CCN(c2nc3c(C)cccn3c(=O)c2/C=C(\C#N)S(=O)(=O)c2ccccc2)CC1,"inconclusive: 35.5 µM [inhibitor, single point]",–

Compound,Potency,"activity change, negative = inhibition"
N#CC1=C(SCc2ccc(C#N)cc2)N=C(N)C(c2nc(-c3ccccc3)cs2)C12CCCCC2 (centres undefined),active: 7.08 µM,–
CCOP(=O)(OCC)c1nc(/C=C/c2ccccc2)oc1NCc1ccccc1,"inconclusive: 20.6 µM [inhibitor, partial curve, poor fit]",–
CCS(=O)(=O)Nc1cc(C(=O)O)ccc1C,"inconclusive: 1.58 µM [activator, single point]",–
Cc1cc(NC(=O)CCc2ccc(C)o2)no1,inactive,–
Cc1ccc(C)c(CN2CCC(CNC(=O)Nc3cccc(Cl)c3C)CC2)c1,"inconclusive: 35.5 µM [inhibitor, single point]",–
CCOc1ccc(C(C(=O)NCC2CCCO2)N(Cc2cccs2)C(=O)c2snc(C(N)=O)c2N)cc1 (centres undefined),inactive,–
COc1ccc(-c2cc(C(=O)N3CCCCC3)no2)cc1OC,"inconclusive: 7.3 µM [activator, single point]",–
CN(C)c1cccc(C(=O)NCc2ccccc2Cl)c1,"inconclusive: 3.16 µM [activator, partial curve, poor fit]",–
COC(=O)C1=C(C)N(C)C(C)=C(C(=O)OC)C1c1ccsc1,"inconclusive: 11.2 µM [inhibitor, single point]",–
CN(C)CCCNC(=O)c1ccc(-c2ccccc2)cc1,"inconclusive: 12.6 µM [inhibitor, single point]",–
CCc1c(Cl)nc(N)nc1Nc1ccccc1C,"inconclusive: 7.08 µM [inhibitor, partial curve]",–
COc1ccc(-n2c(SCc3nc(-c4ccc(C)cc4)no3)nnc2-c2ccccc2)cc1,inactive,–
O=C(Nc1ccc(N2CCN(c3ncccc3C(F)(F)F)CC2)nc1)c1cccs1,active: 12.6 µM,–
CCOc1ccc2[nH]c(=O)c(C(c3nnnn3CC3CCCO3)N3CCc4ccccc4C3)cc2c1 (centres undefined),inactive,–
CCCCOc1ccc(-c2nnc(-c3ccco3)o2)cc1,"inconclusive: 29.1 µM [inhibitor, single point]",–
COC(=O)c1ccc(NC(=O)Nc2ccccc2C)cc1,"inconclusive: 11.2 µM [inhibitor, single point]",–
Cc1ccc(C)c(NC(=O)COC(=O)c2cccc3c2C(=O)c2ccccc2C3=O)c1,"inconclusive: 12.6 µM [inhibitor, partial curve, poor fit]",–
S=c1[nH]nc(-c2cccnc2)n1/N=C/C=C/c1ccco1,"inconclusive: 0.0891 µM [inhibitor, full curve, poor fit]",–
C(=N\N1CCN(c2ccccc2)CC1)/c1ccccc1,"inconclusive: 6.31 µM [activator, single point]",–
CCCSc1nnc(Nc2ccccc2C)s1,inactive,–
CC(=O)Nc1ccc(-c2cc(C(=O)O)c3ccc(C)cc3n2)cc1,"inconclusive: 12.6 µM [activator, single point]",–
CCCc1cc(=O)oc2c(C)c(OCC(=O)c3ccc(N4CCCC4)cc3)ccc12,"inconclusive: 1.78 µM [inhibitor, partial curve, poor fit]",–
CC(=O)c1ccc(OCc2cc(C(=O)NC(C)CCn3cccn3)no2)cc1 (centres undefined),inactive,–

# Some values from the list.
# For Potency, CCOP(=O)(OCC)c1nc(/C=C/c2ccccc2)oc1NCc1ccccc1 shows inconclusive: 20.6 µM [inhibitor, partial curve, poor fit]
# For Potency, COc1ccc(-n2c(SCc3nc(-c4ccc(C)cc4)no3)nnc2-c2ccccc2)cc1 shows inactive

# A draw from above in order of count of non-hydrogen atoms, low to high:
Compound,Potency,"activity change, negative = inhibition"
CCCCOc1ccc(-c2nnc(-c3ccco3)o2)cc1,"inconclusive: 29.1 µM [inhibitor, single point]",–
CC(=O)Nc1ccc(-c2cc(C(=O)O)c3ccc(C)cc3n2)cc1,"inconclusive: 12.6 µM [activator, single point]",–
N#CC1=C(SCc2ccc(C#N)cc2)N=C(N)C(c2nc(-c3ccccc3)cs2)C12CCCCC2 (centres undefined),active: 7.08 µM,–

# (further entries)

Compound,Potency,"activity change, negative = inhibition"
CCCCOc1ccc(C(=O)NCC(c2ccc(Cl)cc2)N2CCOCC2)cc1 (centres undefined),inactive,–
Cn1c(=O)c2ccccc2n(CC(=O)N2CCCc3ccccc32)c1=O,"inconclusive: 3.16 µM [inhibitor, single point]",–
COc1ccc(/C(C)=N/OCC(=O)N=Nc2c(O)[nH]c3ccc(Br)cc23)cc1,"inconclusive: 7.94 µM [inhibitor, partial curve, poor fit]",–
COc1ccc(/C=C2/C(=O)ON=C2C)cc1Cl,inactive,–
COc1ccc(C2CC(C(F)(F)F)n3nc(C(=O)NCc4c(C)nn(C)c4C)c(Cl)c3N2)cc1 (centres undefined),active: 10.3 µM,–
CCN(CC)CCCN(C(=O)c1ccc(Br)cc1)c1nc(-c2ccc(OC)cc2)cs1,active: 3.55 µM,–
Cc1ccc(S(=O)(=O)N2CCCC2c2cccnc2)cc1 (centres undefined),"inconclusive: 0.708 µM [inhibitor, full curve]",–
CN(C)C1(CNC(=O)C2CCN(S(=O)(=O)c3ccccc3C(F)(F)F)CC2)CCCCC1,inactive,–
O=C(O)c1ccc([N+](=O)[O-])cc1Sc1ccsc1,"inconclusive: 12.6 µM [activator, single point]",–
Cc1nc(C(=O)N2CCc3c([nH]c4ccccc34)C2c2cc(F)ccc2F)cs1 (centres undefined),"inconclusive: 14.1 µM [inhibitor, single point]",–
C/C(=N\NC(=O)c1ccc2c(c1)OCO2)c1ccc(C(=O)O)s1,inactive,–
Cc1ccc(NC(=O)/C(=C\c2cccc([N+](=O)[O-])c2)NC(=O)c2cccs2)cc1,"inconclusive: 31.6 µM [activator, single point]",–
Cc1cc(C)c(NC(=O)/C(=C/c2ccccc2)c2ccccc2)c(C)c1,"inconclusive: 8.91 µM [inhibitor, partial curve, poor fit]",–
O=C(Nc1cccnc1Cl)C1=NN(c2ccccc2)C(=O)CC1,"inconclusive: 3.55 µM [inhibitor, full curve, poor fit]",–
O=C1c2ccccc2C(=O)c2c1cccc2N1CCN(Cc2ccccc2)CC1,"inconclusive: 20.6 µM [inhibitor, single point]",–
COc1cccc(-c2nc(S(=O)(=O)c3ccc(C)cc3)c(N3CCCCCC3)o2)c1,"inconclusive: 14.1 µM [inhibitor, partial curve, poor fit]",–
Cc1ccc(Nc2c(O)nc[nH]c2=O)cc1C,"inconclusive: 20 µM [activator, single point]",–
COc1ccc2c(CC(=O)Nc3ccc(OC)c(S(=O)(=O)N4CCOCC4)c3)coc2c1,inactive,–
CS(=O)(=O)c1ccc(C(=O)Nc2ccc(N3CCCCC3)cc2)c(Cl)c1,–,inconclusive: 46.6% [activator] [at 46.1 µM]
CCOC(=O)c1ccc(N2C(=O)c3n[nH]c(-c4ccco4)c3C2c2ccc(OC)cc2OC)cc1 (centres undefined),"inconclusive: 15.8 µM [inhibitor, single point]",–
CCOC(=O)Cc1csc(NC(=O)CCC(=O)O)n1,inactive,–
Fc1cccc(Cl)c1CSc1ncn[nH]1,"inconclusive: 0.82 µM [activator, partial curve, poor fit]",–
Cn1c2ccc(F)cc2c2nc3ccccc3nc21,"inconclusive: 0.316 µM [activator, full curve, poor fit]",–
